The results in this text go back to publication PMC12724372.

By UniProt entry, the sequences of proteins in these tests, tags left out.
UniProt P07355: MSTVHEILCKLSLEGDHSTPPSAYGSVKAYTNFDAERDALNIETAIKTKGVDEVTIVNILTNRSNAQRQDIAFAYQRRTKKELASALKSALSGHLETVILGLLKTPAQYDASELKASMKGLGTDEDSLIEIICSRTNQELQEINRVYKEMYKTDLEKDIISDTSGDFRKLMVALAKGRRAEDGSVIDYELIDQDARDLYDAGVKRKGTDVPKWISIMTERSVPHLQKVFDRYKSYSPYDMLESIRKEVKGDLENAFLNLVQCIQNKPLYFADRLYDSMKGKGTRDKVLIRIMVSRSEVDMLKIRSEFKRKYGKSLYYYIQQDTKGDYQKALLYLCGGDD
UniProt P35579: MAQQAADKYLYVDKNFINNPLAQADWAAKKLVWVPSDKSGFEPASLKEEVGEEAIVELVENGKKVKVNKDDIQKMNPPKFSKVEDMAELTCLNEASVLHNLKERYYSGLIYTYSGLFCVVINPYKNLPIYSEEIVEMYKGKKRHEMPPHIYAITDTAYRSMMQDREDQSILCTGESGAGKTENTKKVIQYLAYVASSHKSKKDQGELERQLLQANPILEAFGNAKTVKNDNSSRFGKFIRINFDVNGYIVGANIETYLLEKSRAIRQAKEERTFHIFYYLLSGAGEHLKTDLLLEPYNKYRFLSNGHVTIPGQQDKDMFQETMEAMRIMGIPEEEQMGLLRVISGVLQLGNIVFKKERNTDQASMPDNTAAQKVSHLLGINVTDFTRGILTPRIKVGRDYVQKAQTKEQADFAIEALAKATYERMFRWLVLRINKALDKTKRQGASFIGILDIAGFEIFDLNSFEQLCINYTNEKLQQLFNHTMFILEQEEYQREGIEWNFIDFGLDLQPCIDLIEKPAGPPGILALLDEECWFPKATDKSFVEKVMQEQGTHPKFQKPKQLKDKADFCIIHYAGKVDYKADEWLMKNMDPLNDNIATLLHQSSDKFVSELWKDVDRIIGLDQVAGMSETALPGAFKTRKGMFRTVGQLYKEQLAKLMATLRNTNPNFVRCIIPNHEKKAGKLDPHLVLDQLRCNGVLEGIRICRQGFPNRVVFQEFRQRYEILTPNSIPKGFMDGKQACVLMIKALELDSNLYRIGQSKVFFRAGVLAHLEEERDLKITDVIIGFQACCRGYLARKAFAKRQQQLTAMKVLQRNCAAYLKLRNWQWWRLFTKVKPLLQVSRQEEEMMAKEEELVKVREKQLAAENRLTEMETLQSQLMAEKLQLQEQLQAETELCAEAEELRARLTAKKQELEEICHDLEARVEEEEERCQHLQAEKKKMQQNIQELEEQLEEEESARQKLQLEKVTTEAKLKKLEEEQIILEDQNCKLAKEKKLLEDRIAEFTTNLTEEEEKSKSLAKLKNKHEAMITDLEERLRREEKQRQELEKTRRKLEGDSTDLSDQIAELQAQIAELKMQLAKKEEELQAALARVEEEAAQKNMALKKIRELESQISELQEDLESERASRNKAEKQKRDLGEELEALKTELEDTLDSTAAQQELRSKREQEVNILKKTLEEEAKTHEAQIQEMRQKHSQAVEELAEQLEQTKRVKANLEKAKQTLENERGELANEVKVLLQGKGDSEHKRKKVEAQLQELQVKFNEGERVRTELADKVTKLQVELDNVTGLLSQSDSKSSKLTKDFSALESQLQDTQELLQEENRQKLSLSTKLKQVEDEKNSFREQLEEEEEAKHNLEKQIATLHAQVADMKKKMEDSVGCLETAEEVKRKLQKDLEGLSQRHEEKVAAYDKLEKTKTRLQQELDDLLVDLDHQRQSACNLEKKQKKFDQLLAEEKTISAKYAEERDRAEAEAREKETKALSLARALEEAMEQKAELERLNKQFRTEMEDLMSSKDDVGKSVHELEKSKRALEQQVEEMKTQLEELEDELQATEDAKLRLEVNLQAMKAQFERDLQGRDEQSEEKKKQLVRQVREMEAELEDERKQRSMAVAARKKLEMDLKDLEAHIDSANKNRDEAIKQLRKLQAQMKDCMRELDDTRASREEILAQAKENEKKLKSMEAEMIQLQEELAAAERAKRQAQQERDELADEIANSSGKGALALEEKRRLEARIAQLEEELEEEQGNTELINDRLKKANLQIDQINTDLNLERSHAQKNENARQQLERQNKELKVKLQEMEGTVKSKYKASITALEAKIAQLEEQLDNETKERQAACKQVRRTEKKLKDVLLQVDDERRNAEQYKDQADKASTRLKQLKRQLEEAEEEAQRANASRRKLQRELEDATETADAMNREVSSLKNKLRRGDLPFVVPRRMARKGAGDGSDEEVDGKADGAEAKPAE

No constants are given. Whether binding was seen depends on the method and setting. Binding seen in cells or lysates may run through a third protein. A yes stands for co-enrichment or nearness to the bait. Other partners may have been found.

The target in assay [1] is reovirus T3D nonstructural protein σNS (expression plasmid) (reovirus T3D) (UniProt P03526). In words: affinity purification with mass spectrometry; HeLa cells transfected with both σNS and µNS plasmids, 48 h post-transfection; same lysis buffer; σNS-specific or µNS-specific antibody, protein A Dynabeads; MALDI-ToF MS.
The target is the same in assay [2]. In words: affinity purification with mass spectrometry; HeLa cells transfected with one plasmid only (T3D σNS alone or µNS alone), 48 h post-transfection; same lysis buffer; σNS-specific or µNS-specific antibody, protein A Dynabeads; MALDI-ToF MS.

Regarding annexin A2 (from UniProt P07355 1-339), the binding entry in assay [1] and in assay [2] was “binds” in each case.
On to myosin-9 (from UniProt P35579 1-1960), for which the binding result in assay [1] and in assay [2] was “binds” each time.
